system: Vero normal cell line; test: MTT cell viability assay on normal Vero cells (selectivity); format: cell-based; settings: SI (Selectivity index) = IC50 on Vero cells/IC50 on Caco-2 (Table 3)
Method: MCF-7 cells (Human breast adenocarcinoma), HepG2 (human hepatocellular carcinoma), A549 (human lung adenocarcinoma), Caco-2 (colon carcinoma), PANC-1 (human pancreatic cancer), and Vero cells (derived from normal kidney cells) were supplied by (Holding Company for Biological Products and Vaccines VACSERA; Giza, Egypt).
The effect of parent compounds and their derivatives were assessed by (3-(4,5-dimethylthiazol-2-yl)-2,5diphenyl-tetrazolium bromide) MTT assay. […] After a merged sheet of cells developed, the growth media was decanted from the 96-well microtiter and refilled with different concentrations of compounds (µg/mL), and the plate was incubated at 37 °C for 48 h to minimize exposure to the dissolving agent (Supporting Information).
MTT solution (BIO BASIC CANADA INC) was prepared [5 mg/mL in phosphate buffered saline (PBS)], added to each well and incubated for 4 h, then after removing the media, 200 μL of DMSO was added to each well to solubilize the formazan crystals and the optical density of the formazan product was measured at 560 nm using microplate reader (mindray, MR-96A). The results were calculated as the mean of the three independent experiments. […]
Determination of sample cytotoxicity on cells (MTT protocol) […]
well) and incubated at 37°C for 24 hours to develop a complete monolayer sheet.
2- Growth medium was decanted from 96 well micro titer plates after confluent sheet of cells were formed, cell monolayer was washed twice with wash media.
3- two-fold dilutions of tested sample was made in RPMI medium with 2% serum […]
4- 0.1 ml of each dilution was tested in different wells leaving 3 wells as control, receiving only maintenance medium.
5- Plate was incubated at 37°C and examined. Cells were checked for any physical signs of toxicity, e.g. partial or complete loss of the monolayer, rounding, shrinkage, […]
6- MTT solution was prepared (5mg/ml in PBS) (BIO BASIC CANADA INC).
8- 20ul MTT solution were added to each well. Place on a shaking table, 150rpm for 5 minutes, to thoroughly mix the MTT into the media.
10) Dump off the media. (dry plate on paper towels to remove residue if necessary. […]

SMILES	SI Vero
O=C(/C=C/c1ccc(O)c(O)c1)N1CCN(c2ccccc2)CC1 [Compound 3, (E)-3-(3,4-Dihydroxyphenyl)-1-(4-phenylpiperazin-1-yl)prop-2-en-1-one]	0.087
O=C(/C=C/c1ccc(O)c(O)c1)Nc1ccc(O)cc1 [Compound 4, (E)-3-(3,4-Dihydroxyphenyl)-N-(4-hydroxyphenyl)acrylamide]	0.094
O=C(/C=C/c1ccc(O)c(O)c1)NC1CCCCC1 [Compound 6, (E)-N-Cyclohexyl-3-(3,4-dihydroxyphenyl)acrylamide]	0.083
O=C(/C=C/c1ccc(O)c(O)c1)Nc1ccc(Br)cc1 [Compound 7, (E)-N-(4-Bromophenyl)-3-(3,4-dihydroxyphenyl)acrylamide]	0.99
COc1ccc(NC(=O)/C=C/c2ccc(O)c(O)c2)cc1 [Compound 8, (E)-N-(4-Methoxyphenyl)-3-(3,4-dihydroxyphenyl)acrylamide]	0.14
Nc1ccccc1NC(=O)/C=C/c1ccc(O)c(O)c1 [Compound 11, (E)-N-(2-Aminophenyl)-3-(3,4-dihydroxyphenyl)acrylamide]	0.13
COc1ccc(/C=C/C(=O)N2CCN(c3ccccc3)CC2)cc1O [Compound 12, (E)-3-(3-Hydroxy-4-methoxyphenyl)-1-(4-phenylpiperazin-1-yl)prop-2-en-1-one]	0.048
COc1ccc(NC(=O)/C=C/c2ccc(OC)c(O)c2)cc1 [Compound 13, (E)-3-(3-Hydroxy-4-methoxyphenyl)-N-(4-methoxyphenyl)acrylamide]	0.089
COc1cc(/C=C/C(=O)NC2CCCCC2)ccc1O [Compound 15, (E)-N-Cyclohexyl-3-(4-hydroxy-3-methoxyphenyl)acrylamide]	0.13
COc1ccc(NC(=O)/C=C/c2ccc(O)c(OC)c2)cc1 [Compound 16, (E)-3-(4-Hydroxy-3-methoxyphenyl)-N-(4-methoxyphenyl)acrylamide]	0.13
COc1ccc(/C=C/C(=O)NCc2ccccc2)cc1O [Compound 18, (E)-N-Benzyl-3-(3-hydroxy-4-methoxyphenyl) acrylamide]	0.15
COc1cc(/C=C/C(=O)Nc2ccc(Cl)cc2)ccc1O [Compound 19, (E)-N-(4-Chlorophenyl)-3-(4-hydroxy-3-methoxyphenyl)acrylamide]	0.077
COc1ccc(/C=C/C(=O)Nc2ccccc2N)cc1O [Compound 20, (E)-N-(2-Aminophenyl)-3-(3-hydroxy-4-methoxyphenyl)acrylamide]	0.082

same assay, conditions: SI (Selectivity index) = IC50 on Vero cells/IC50 on cancer cells (Table 2)

SMILES	SI Vero
COc1cccc2c1C(=O)c1c(O)c3c(c(O)c1C2=O)C[C@@](O)(C(=O)CO)C[C@@H]3O[C@H]1C[C@H](N)[C@H](O)[C@H](C)O1 [Doxorubicin]	0.04

From PMC9571594, “Development of Semisynthetic Apoptosis-Inducing Agents Based on Natural Phenolic Acids Scaffold: Design, Synthesis and In-Vitro Biological Evaluation” (Molecules, 2022)
